From PMC5437283
Results are given in words; binding and its absence hold for the method and conditions named. Some binding calls cover weakened binding; strength is not graded here.

Molecular target: T1, wildtype pneumolysin (PLYWT) (Streptococcus pneumoniae), P0C2J9
T1 chain: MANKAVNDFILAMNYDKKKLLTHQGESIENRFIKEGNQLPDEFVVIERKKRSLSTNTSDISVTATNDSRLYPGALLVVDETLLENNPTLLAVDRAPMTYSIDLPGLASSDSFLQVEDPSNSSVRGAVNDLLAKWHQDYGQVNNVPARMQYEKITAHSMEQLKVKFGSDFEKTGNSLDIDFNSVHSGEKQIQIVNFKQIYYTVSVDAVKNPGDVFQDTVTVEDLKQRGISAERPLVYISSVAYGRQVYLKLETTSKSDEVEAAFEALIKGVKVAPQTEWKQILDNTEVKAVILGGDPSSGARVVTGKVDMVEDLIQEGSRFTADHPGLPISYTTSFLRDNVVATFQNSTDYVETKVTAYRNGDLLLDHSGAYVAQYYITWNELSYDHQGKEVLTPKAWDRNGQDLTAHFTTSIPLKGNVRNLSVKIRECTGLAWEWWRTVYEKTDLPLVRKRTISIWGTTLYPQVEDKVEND
Assay: negative-stain EM; 25 µg/ml PLY added to cholesterol-containing liposomes (0.5 mg/ml); stained with 1% uranyl acetate; both purified
Conditions: remark: other sources report otherwise

B1: wildtype pneumolysin (PLYWT), P0C2J9 1-471 (natural protein)
chain: T1 chain
  binding: binds
